According to article doi:10.1101/2025.11.07.687288:
Where two headings read alike, the source gives them in different places. No constants are given. Whether binding was seen depends on the method and setting. Binding seen in cells or lysates may run through a third protein. These calls come from enrichment with a bait or labelling near it, and not all partners need be listed. For part of these data: Tags and fused reporters may be left off the sequences shown.

Protein sequences, listed by entry. Tags and fused reporters are not part of them. Lines headed by an entry give the natural chain unless they say otherwise; changes in a name come on top. Residues count along the entry.
UniProt F1PAA9, 157-885: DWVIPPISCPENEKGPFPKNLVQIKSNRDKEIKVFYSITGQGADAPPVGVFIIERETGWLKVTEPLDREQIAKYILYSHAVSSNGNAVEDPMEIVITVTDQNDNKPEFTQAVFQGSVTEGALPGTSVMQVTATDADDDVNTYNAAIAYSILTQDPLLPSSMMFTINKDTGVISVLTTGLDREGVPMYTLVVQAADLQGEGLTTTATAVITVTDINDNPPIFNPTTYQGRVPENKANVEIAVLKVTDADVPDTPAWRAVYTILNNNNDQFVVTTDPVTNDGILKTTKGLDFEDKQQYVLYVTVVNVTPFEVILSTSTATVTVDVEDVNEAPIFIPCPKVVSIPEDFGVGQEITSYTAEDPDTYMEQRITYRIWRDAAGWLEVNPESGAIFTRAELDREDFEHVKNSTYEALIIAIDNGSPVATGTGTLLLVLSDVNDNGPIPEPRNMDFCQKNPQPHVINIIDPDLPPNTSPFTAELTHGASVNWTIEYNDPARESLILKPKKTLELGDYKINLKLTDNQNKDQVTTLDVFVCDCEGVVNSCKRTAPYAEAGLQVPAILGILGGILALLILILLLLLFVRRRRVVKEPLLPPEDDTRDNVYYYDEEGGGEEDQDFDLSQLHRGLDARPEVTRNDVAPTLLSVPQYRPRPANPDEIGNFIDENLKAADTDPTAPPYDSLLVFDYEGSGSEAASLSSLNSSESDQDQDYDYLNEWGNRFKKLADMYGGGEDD

Legend:
Assay in all cases: proximity labelling
[1] = target: E-cadherin, wild type, as the Dimerization Activated TurboID pair (WT-DAT: EcadN and EcadC) (UniProt F1PAA9)
[2] = target: WT-Ecad fused to full-length TurboID (WT-Turbo) (UniProt F1PAA9)
[3] = target: WT-Ecad fused to full-length TurboID (WT-Turbo) (UniProt F1PAA9); remark: listed apart in the source
[4] = target: Δ-Ecad (V81D L175D) fused to full-length TurboID (Δ-Turbo)
[5] = target: E-cadherin, wild type, as the Dimerization Activated TurboID pair (WT-DAT: EcadN and EcadC) (UniProt F1PAA9); remark: listed apart in the source

| Molecule | binding [1] | binding [2] | binding [3] | binding [4] | binding [5] |
| --- | --- | --- | --- | --- | --- |
| Vinculin (from UniProt P18206-2) | binds | binds |  |  |  |
| p120-catenin (protein, UniProt O60716 1-968) MDDSEVESTASILASVKEQEAQFEKLTRALEEERRHVSAQLERVRVSPQDANPLMANGTLTRRHQNGRFVGDADLERQKFSDLKLNGPQDHSHLLYSTIPRMQEPGQIVETYTEEDPEGAMSVVSVETSDDGTTRRTETTVKKVVKTVTTRTVQPVAMGPDGLPVDASSVSNNYIQTLGRDFRKNGNGGPGPYVGQAGTATLPRNFHYPPDGYSRHYEDGYPGGSDNYGSLSRVTRIEERYRPSMEGYRAPSRQDVYGPQPQVRVGGSSVDLHRFHPEPYGLEDDQRSMGYDDLDYGMMSDYGTARRTGTPSDPRRRLRSYEDMIGEEVPSDQYYWAPLAQHERGSLASLDSLRKGGPPPPNWRQPELPEVIAMLGFRLDAVKSNAAAYLQHLCYRNDKVKTDVRKLKGIPVLVGLLDHPKKEVHLGACGALKNISFGRDQDNKIAIKNCDGVPALVRLLRKARDMDLTEVITGTLWNLSSHDSIKMEIVDHALHALTDEVIIPHSGWEREPNEDCKPRHIEWESVLTNTAGCLRNVSSERSEARRKLRECDGLVDALIFIVQAEIGQKDSDSKLVENCVCLLRNLSYQVHREIPQAERYQEAAPNVANNTGPHAASCFGAKKGKDEWFSRGKKPIEDPANDTVDFPKRTSPARGYELLFQPEVVRIYISLLKESKTPAILEASAGAIQNLCAGRWTYGRYIRSALRQEKALSAIADLLTNEHERVVKAASGALRNLAVDARNKELIGKHAIPNLVKNLPGGQQNSSWNFSEDTVISILNTINEVIAENLEAAKKLRETQGIEKLVLINKSGNRSEKEVRAAALVLQTIWGYKELRKPLEKEGWKKSDFQVNLNNASRSQSSHSYDDSTLPLIDRNQKSDKKPDREEIQMSNMGSNTKSLDNNYSTPNERGDHNRTLDRSGDLGDMEPLKGTTPLMQDEGQESLEEELDVLVLDDEGGQVSYPSMQKI |  |  | binds | binds |  |
| Synaptotagmin-like protein 4 (protein, UniProt Q96C24 1-671) MSELLDLSFLSEEEKDLILSVLQRDEEVRKADEKRIRRLKNELLEIKRKGAKRGSQHYSDRTCARCQESLGRLSPKTNTCRGCNHLVCRDCRIQESNGTWRCKVCAKEIELKKATGDWFYDQKVNRFAYRTGSEIIRMSLRHKPAVSKRETVGQSLLHQTQMGDIWPGRKIIQERQKEPSVLFEVPKLKSGKSALEAESESLDSFTADSDSTSRRDSLDKSGLFPEWKKMSAPKSQVEKETQPGGQNVVFVDEGEMIFKKNTRKILRPSEYTKSVIDLRPEDVVHESGSLGDRSKSVPGLNVDMEEEEEEEDIDHLVKLHRQKLARSSMQSGSSMSTIGSMMSIYSEAGDFGNIFVTGRIAFSLKYEQQTQSLVVHVKECHQLAYADEAKKRSNPYVKTYLLPDKSRQGKRKTSIKRDTINPLYDETLRYEIPESLLAQRTLQFSVWHHGRFGRNTFLGEAEIQMDSWKLDKKLDHCLPLHGKISAESPTGLPSHKGELVVSLKYIPASKTPVGGDRKKSKGGEGGELQVWIKEAKNLTAAKAGGTSDSFVKGYLLPMRNKASKRKTPVMKKTLNPHYNHTFVYNGVRLEDLQHMCLELTVWDREPLASNDFLGGVRLGVGTGISNGEVVDWMDSTGEEVSLWQKMRQYPGSWAEGTLQLRSSMAKQKLGL |  |  | binds |  | binds |
